The whole screen tested about 360,000 compounds, of which about 7,500 (2.1%) were called active. Inconclusive results, whose numbers are uncertain, are shown with a selection of clear calls. Calls come from the whole dose curve; as a rule, active = well fitted inhibition curve with a large enough effect; inconclusive = small, poorly fitted or top-dose-only effect, or effect the other way; inactive = flat fitted curve, though single readings scatter. Potencies beside an inconclusive call are fits to weak or partial responses and may not hold up.
Experiment: Nrf2 qHTS screen for inhibitors; note: nearly all actives have a fitted effect of over 60% in size
Details: A549 ARE-Fluc reporter, luciferase luminescence, 18-24 h; series mostly up to 46 µM
Outline: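 Reporter: ARE-Fluc in A549. Exposure: 18-24 h, 37 °C, 5% CO2, 5% FBS OPTI-MEM. Readouts: fluorescent cytotoxicity (CellTiter-Fluor), then luminescent Nrf2 signal after BugLite.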
For `O=C(NCCc1ccccc1)c1ccc(Cn2c(SCc3ccc(F)cc3)nc3cccnc32)cc1`, the Potency was inconclusive: 29.1 µM [activator, single point]. With `Cc1ccccc1Nc1c(-c2ccsc2)nc2c(C)cccn12` the Potency was inconclusive: 3.66 µM [activator, partial curve, poor fit]. In the case of `O=C(CCC(=O)N1CCN(S(=O)(=O)c2ccc(Cl)cc2)CC1)NC1CCCc2ccccc21` (configuration not stated), the Potency is reported as inconclusive: 29.1 µM [falling, single point]. With `Cc1ccc(CNC(=O)c2cn(C)c3ccc(S(=O)(=O)N(C)C4CCCCC4)cc3c2=O)cc1` the Potency was inconclusive: 2.91 µM [falling, single point]. With `O=C(CCc1ccccc1)NCc1ccc(F)cc1` the Potency was inconclusive: 20.6 µM [activator, single point]. In the case of `CCCOc1ccc(S(=O)(=O)n2cc(Br)c(=O)[nH]c2=O)cc1`, the Potency is reported as inconclusive: 29.1 µM [falling, single point]. With `CCOCCOC(=O)c1[nH]c2c(c1C)C(=O)CC(c1ccc(N(C)C)cc1)C2` (configuration not stated) the Potency was inconclusive: 32.6 µM [falling, partial curve, poor fit]. With `CCc1ccc2[nH]c3nc(SCC(=O)NCC4CCCO4)nnc3c2c1` (configuration not stated) the Potency was inconclusive: 29.1 µM [falling, single point]. In the case of `Cc1ccc(NC(=O)C2CCCN(S(=O)(=O)c3cnc[nH]3)C2)cc1C` (configuration not stated), the Potency is reported as “inactive”. For `CC(C)(C)C(=O)/C(=C/c1ccc(Cl)cc1)n1cncn1`, the Potency was inconclusive: 11.6 µM [falling, partial curve]. For `COc1cccc(/C=C2\Sc3ccc(C(=O)NCc4cccnc4)cc3N(C)C2=O)c1`, the Potency was “inactive”. With `CN(C#N)c1nccc(-c2cccs2)n1` the Potency was inconclusive: 0.731 µM [falling, full curve]. With `COc1cccc(-n2c(C)nc3c(cnn3-c3ccc(Cl)cc3)c2=O)c1` the Potency was inconclusive: 4.11 µM [falling, full curve, poor fit]. In the case of `Cc1cccc(C)c1NC(=S)N(C)CCc1ccccn1`, the Potency is reported as inconclusive: 29.1 µM [activator, partial curve, poor fit]. With `COCCn1c(SCC(=O)c2c[nH]c3ccccc23)nnc1-c1ccncc1` the Potency was “inactive”. With `Cn1nc(-c2ccc(Cl)cc2)c2cc(C(=O)NCC3CCCO3)sc21` (configuration not stated) the Potency was inconclusive: 29.1 µM [falling, single point]. For `COc1cccc(-c2nnc(NC(=O)c3ccc(S(=O)(=O)N4CCOCC4)cc3)o2)c1`, the Potency was active: 11.6 µM. For `Cc1cccc(N(CC(=O)NC(C)c2ccccc2)S(=O)(=O)c2ccccc2)c1C` (configuration not stated), the Potency was inconclusive: 18.4 µM [falling, single point]. With `Cc1occc1C(=O)Nc1nnc(-c2cccs2)s1` the Potency was inconclusive: 1.84 µM [activator, full curve]. For `CCOc1cc(C(=O)OCc2cc(=O)n3c(C)csc3n2)cc(OCC)c1OCC`, the Potency was inconclusive: 23.1 µM [activator, single point]. With `Cc1cccc(S(=O)C(c2ccccc2)c2ccccc2)c1` (configuration not stated) the Potency was inconclusive: 11.6 µM [falling, partial curve]. With `CCOC(=O)c1[nH]c(C)c(C(=O)OCC(=O)N(Cc2ccccc2)C(C)C)c1C` the Potency was inconclusive: 13 µM [falling, partial curve, poor fit]. For `CCS(=O)(=O)Nc1ccc(C2=NN(C(=O)c3ccco3)C(c3cccc(F)c3)C2)cc1` (configuration not stated), the Potency was inconclusive: 14.6 µM [falling, partial curve]. For `Cc1ccc(-n2sc3ccccc3c2=O)cc1S(=O)(=O)N1CCCCC1`, the Potency was inconclusive: 29.1 µM [falling, single point]. With `CC(=O)Nc1ccc(S(=O)(=O)N2CCc3c(Cl)cccc3C2)cc1` the Potency was inconclusive: 18.4 µM [falling, single point]. In the case of `COc1ccc(OC)c(CCNC(=O)CCn2c(=O)c3cccn3c3cccnc32)c1`, the Potency is reported as “inactive”. With `COc1ccc(CCN(C)C(=O)c2cc(S(=O)(=O)N3CCCCC3)ccc2Cl)cc1OC` the Potency was active: 16.4 µM. In the case of `O=C(CCl)NN1C(=O)NC2(CCCCC2)C1=O`, the Potency is reported as inconclusive: 13 µM [falling, partial curve, poor fit]. In the case of `CC(C)Cn1c(=O)c2ccccc2n2c(-c3ccc(Br)cc3)nnc12`, the Potency is reported as inconclusive: 20.6 µM [falling, partial curve]. For `O=c1[nH]c(C2CCN(S(=O)(=O)/C=C/c3ccccc3)CC2)nc2c1nnn2Cc1ccccc1`, the Potency was inconclusive: 18.4 µM [falling, single point]. With `CCN1C(=S)SC(=O)C1=C1C=C(C)OC(C)=C1` the Potency was inconclusive: 4.61 µM [activator, partial curve]. In the case of `Cc1ccccc1NC(=O)Cn1c(=O)n(Cc2ccc3c(c2)OCO3)c(=O)c2oc3ccccc3c21`, the Potency is reported as “inactive”. In the case of `Cc1nn(-c2ccccc2)c2sc(C(=O)NC3CCCCC3)cc12`, the Potency is reported as “inactive”. For `Cc1nc(N2C(=O)C(=O)/C(=C(/O)c3ccccc3)C2c2ccco2)sc1C` (configuration not stated), the Potency was inconclusive: 29.1 µM [falling, single point]. With `CN(C(=O)CSc1nc2ccc(Br)cc2c(=O)n1Cc1ccco1)C1CCS(=O)(=O)C1` (configuration not stated) the Potency was inconclusive: 4.11 µM [falling, partial curve, poor fit]. For `COc1ccc(C(=O)/C(=C/c2cccs2)c2nc3ccccc3o2)cc1`, the Potency was inconclusive: 16.4 µM [activator, partial curve]. In the case of `CC(=O)Nc1cccc(-c2cc(-c3c(Cl)cccc3Cl)no2)c1`, the Potency is reported as inconclusive: 20.6 µM [falling, partial curve, poor fit]. For `CCOC(=O)c1c(C)oc2c1c(C=NCCO)c(O)c1ccccc12`, the Potency was active: 14.6 µM. With `O=C(NS(=O)(=O)Nc1ccccn1)c1c[nH]c2ccccc12` the Potency was inconclusive: 18.4 µM [activator, single point]. For `Cc1cc2c(cc1S(=O)(=O)Nc1cccc(C(F)(F)F)c1)OCCN2C`, the Potency was “inactive”. For `CCOc1ccc(-c2nonc2NC(=O)c2ccccc2C)cc1`, the Potency was inconclusive: 10.3 µM [activator, partial curve]. For `COc1ccc2[nH]c3c(c2c1)CCN1C(=O)C(CC(=O)NCC24CC5CC(CC(C5)C2)C4)C[C@H](C(=O)N2CCOCC2)[C@@]31CCC1CCCC1` (some centres not stated), the Potency was active: 20.6 µM. For `COc1cccc(-n2nnnc2SCC(=O)N2CCCc3ccccc32)c1`, the Potency was inconclusive: 29.1 µM [falling, single point]. For `O=C(NC1CCCCCCC1)c1cccc(Cl)c1`, the Potency was inconclusive: 23.1 µM [activator, single point]. For `O=C(N/N=C/c1cccc([N+](=O)[O-])c1)c1cccs1`, the Potency was inconclusive: 29.1 µM [activator, single point]. With `c1ccc(CC2CCN(c3nc4ccccc4n4nnnc34)CC2)cc1` the Potency was “inactive”. With `O=C(NCC1CCCN1S(=O)(=O)c1cccs1)c1ccc([N+](=O)[O-])cc1` (configuration not stated) the Potency was inconclusive: 29.1 µM [falling, single point]. For `Cc1nc(N2CCN(c3ccccn3)CC2)c2c(C)c(C(=O)N3CCN(c4ccc(F)cc4)CC3)sc2n1`, the Potency was active: 18.4 µM. For `CC(C)Cn1c(=O)c2sccc2n2c(CCCC(=O)Nc3ccc(Cl)cc3)nnc12`, the Potency was “inactive”. With `O=C(NCC(=O)N1CCN(c2ccccc2)CC1)c1ccc(Br)o1` the Potency was inconclusive: 6.51 µM [falling, single point]. In the case of `Cc1ccc(Cl)cc1NC(=O)COC(=O)c1ccccc1O`, the Potency is reported as “inactive”. In the case of `O=C(NCc1nnc(-c2cc3ccccc3[nH]2)o1)c1ccccc1`, the Potency is reported as “inactive”. In the case of `CC(C)=CCC/C(C)=C/CNC(=O)C[C@H]1C[C@H](C(=O)N2CCOCC2)[C@@]2(C)c3[nH]c4cc(CCC(=O)N(C)C)ccc4c3CCN2C1=O`, the Potency is reported as active: 14.6 µM. For `CCc1nc2oc3ccccc3c(=O)c2cc1C(=O)OC`, the Potency was inconclusive: 5.17 µM [activator, partial curve]. For `CC1(C)NC(=O)N(CCCCOc2ccc3c(c2)CCC3)C1=O`, the Potency was inconclusive: 18.4 µM [falling, single point]. In the case of `O=C(O)Cc1sc(-c2ccccc2)nc1-c1ccccc1`, the Potency is reported as inconclusive: 29.1 µM [falling, single point]. In the case of `COC(=O)c1c(C)nc(C)c2c(=O)oc3ccccc3c12`, the Potency is reported as “inactive”. For `Cc1cc2c(s1)c1cnn(Cc3ccc(C(=O)O)cc3)c(=O)c1n2C`, the Potency was “inactive”. With `O=C(Nc1cccc(-c2nc3ccccc3s2)c1)c1ccc2c(c1)OCO2` the Potency was inconclusive: 25.9 µM [falling, single point]. In the case of `O=C(Nc1cccc(S(=O)(=O)N2CCCC2)c1)c1ccc2c(=O)n3c(nc2c1)CCCCC3`, the Potency is reported as active: 11.6 µM. With `O=C(COc1ccc(Cl)cc1)Nc1ccccc1C(=O)NCc1ccco1` the Potency was inconclusive: 25.9 µM [falling, single point]. With `CC1CCCCN1C(=O)CSc1nnc(-c2cccc(Cl)c2)o1` (configuration not stated) the Potency was inconclusive: 2.91 µM [activator, full curve, poor fit]. In the case of `C/C=C(/C)C(=O)O[C@H]1CC(C)=CC(=O)[C@@]2(C)CC[C@@](O)(C(C)C)[C@H]12`, the Potency is reported as “inactive”. In the case of `CC1(c2ccccc2)CC(C)(C)n2c(O)c(C3=NC(=S)NC3=O)c3cccc1c32` (configuration not stated), the Potency is reported as inconclusive: 13 µM [falling, partial curve, poor fit]. In the case of `S=c1[nH]nc(Cc2noc3ccccc23)n1-c1ccccc1`, the Potency is reported as “inactive”. For `COCCNC(=O)c1nc2ccccc2s1`, the Potency was inconclusive: 29.1 µM [activator, single point]. In the case of `C[C@@H](C(=O)NCCc1ccccc1)N1C(=O)N2CCc3c([nH]c4ccccc34)[C@@]2(C)C1=O`, the Potency is reported as inconclusive: 29.1 µM [falling, single point].

From PubChem BioAssay AID504444 (National Center for Advancing Translational Sciences (NCATS), 2011)
Potency is the fitted concentration of half-maximal effect.
